Experimental data as given in PubChem BioAssay (NCATS).
Listed are the inconclusive results; actives and inactives stand elsewhere. Unless noted, the call rests on the fitted dose curve; in most records, active means well fitted curve in the direction sought with a large enough effect; inconclusive means small, poorly fitted or top-dose-only effect, or another doubt; inactive means no such curve, though single readings can be large; an effect the other way counts as inactive or inconclusive.

Protein sequences, listed by entry. Tags and fused reporters are not part of them.
UniProt P24462, whole entry: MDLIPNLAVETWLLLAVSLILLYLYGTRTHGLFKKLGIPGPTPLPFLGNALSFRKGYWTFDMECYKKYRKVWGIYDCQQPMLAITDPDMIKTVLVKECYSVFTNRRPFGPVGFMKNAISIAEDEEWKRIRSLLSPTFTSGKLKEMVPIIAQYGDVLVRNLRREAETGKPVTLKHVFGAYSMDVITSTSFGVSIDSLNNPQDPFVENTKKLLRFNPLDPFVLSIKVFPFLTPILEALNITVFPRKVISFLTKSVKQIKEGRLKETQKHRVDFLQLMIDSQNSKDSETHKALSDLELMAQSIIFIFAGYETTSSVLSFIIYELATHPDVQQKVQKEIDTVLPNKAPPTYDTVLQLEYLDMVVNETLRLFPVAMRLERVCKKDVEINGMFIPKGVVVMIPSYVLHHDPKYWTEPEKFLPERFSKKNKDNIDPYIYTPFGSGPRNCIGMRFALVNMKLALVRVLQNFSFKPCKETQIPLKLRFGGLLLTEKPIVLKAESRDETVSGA

Columns and labels:
[1] = biological target: Cytochrome P450 3A7 (Homo sapiens) (UniProt P24462); test: Cytochrome P450 family 3 subfamily A member 7 (CYP3A7) small molecule antagonists: luciferase qHTS assay (AID 1963596; further: nearly all actives have a fitted effect of over 40% in size); conditions: P450-Glo CYP3A7 enzyme luminescence, 1 h
Description: National Center for Advancing Translational Sciences [NCATS] Assay Overview: Cytochrome P450 (CYP) enzymes are membrane-bound hemeproteins that play a key role in metabolism of drugs and xenobiotics. The CYP3A subfamily is the most abundant, representing 30% of the total adult hepatic CYP content, whereas CYP3A7 is found predominantly in human fetal liver and accounts up to 50% of the total fetal hepatic CYP content. Testing the effect of chemicals on CYP isozymes is useful to minimize the adverse drug reactions and toxicities in the drug development process. Chemicals were tested for their effect on CYP enzyme activities by using P450-Glo (TM) screening systems (Promega Corporation, Madison, WI). […] The luciferin products formed are detected with a luciferin detection reagent, and the amount of light produced is proportional to CYP activity. […]
Assay Protocol Summary: Two ul of enzyme-substrate mix was dispensed into medium binding white/solid 1536-well plates (Greiner Bio-One North America Inc., Monroe, NC) using a Flying Reagent Dispenser (FRD, Aurora Discovery, San Diego, CA). […] The reaction was stopped by adding 4 ul of detection reagent using an FRD and after 20 min incubation at room temperature the luminescence signal was measured using a ViewLux plate reader (Perkin Elmer, Shelton, CT). Data were expressed as relative luminescence units.

[2] = Viability qHTS for spleen associated tyrosine kinase inhibitor (SYKi) drug resistant MV4-11 cells (AID 1963824); conditions: SYKi-resistant MV4-11 viability, CellTiter-Glo, 72 h; further: nearly all actives have a fitted effect of over 35% in size
Description: (§1) Department of Medicine, Hematology/Oncology
(§2) University Hospital Frankfurt, Germany.
(§3) Trials have shown promising clinical activity of the selective SYK inhibitor entospletinib in patients with high expressing HOXA9/MEIS1 acute leukemias. As the development of resistance mechanisms is a common problem in the use of targeted drugs, we performed a chemical library screen to identify drug sensitivities in SYK inhibitor resistant AML cells. […] Glucocorticoids are potent immunosuppressants which work in part by inhibiting the transcription of cytokine genes.
Described herein is a viability screen to look for activity in the SYK inhibitor drug resistant cell line against four NCATS compound libraries (MIPE 5.0, NPC, NPACT, and Kinase) totaling 11372 compounds. Active hits were reacquired for confirmation and further secondary assay testing.
(§4) SEQUENCE No. (e.g., 1, 2, 3, etc.); […] (e.g., Cells, Incubation, Reagent, etc.); VALUE; DESCRIPTION.
(§5) 1; Media; 2uL; white, solid-bottom Corning assay plate.
2; Compounds; 23nL; Echo acoustic dispenser. […]
(§6) 7; Detection; Luminescence; ViewLux plate reader (PerkinElmer). […]
1. Quantitative high-throughput screening (qHTS) of small molecule compounds was conducted on drug resistant SYKi MV4-11 cell line. […]
(§7) 5. Viability was assessed by adding 3uL of CellTiter-Glo detection reagent (Promega). […]
(§8) 7. Luminescence was measured on a ViewLux plate reader (PerkinElmer).

[3] = Viability qHTS for spleen associated tyrosine kinase inhibitor (SYKi) naive MV4-11 cells (AID 1963823); conditions: MV4-11 AML viability, CellTiter-Glo luminescence, 72 h; further: nearly all actives have a fitted effect of over 40% in size
Description: as §1, §2, §3
Described herein is a viability screen to look for activity in the SYK inhibitor naive cell line against four NCATS compound libraries (MIPE 5.0, NPC, NPACT, and Kinase) totaling 11372 compounds. Active hits were reacquired for confirmation and further secondary assay testing.
as §4, §5
2; Compounds; 23nL; Echo acoustic dispenser.
3; Cell; 5uL; 500 cells per well. […]
as §6
1. Quantitative high-throughput screening (qHTS) of small molecule compounds was conducted on naive SYKi MV4-11 cell line. […]
as §7, §8

[4] = Quantitative highthroughput screen to assess conditional lethalithy of NOMO1 cells grown in RPMI1640 with untreated serum (RPMI+s) (AID 1963876); conditions: NOMO1 AML cells in RPMI+serum, CellTiter-Glo viability, 48 h; further: nearly all actives have a fitted effect of over 35% in size
Description: (§9) Assay Provider: Jason Cantor Ph.D.
(§10) Department of Biochemistry
(§11) University of Wisconsin-Madison, Madison, WI, USA
(§12) Chemical screening studies have identified drug sensitivities across hundreds of cancer cell lines but most putative therapeutics fail to translate. Discovery and development of drug candidates in models that more accurately reflect nutrient levels in human blood is a major challenge. Here we performed high-throughput screens in conventional versus Human Plasma-Like Medium (HPLM) to identify compounds that were "missed" when screening using the artificial culture condition. Sets of conditional anticancer compounds spanned phases of clinical development and included non-oncology drugs were assessed. […] We also traced conditional phenotypes for several chemotherapeutics to availability of HPLM-specific metabolites and confirmed others for compounds whose reported targets are encoded by nonessential genes. Our findings establish generalizable strategies for exploiting conditional lethality in HPLM to reveal therapeutic candidates and mechanisms of action in cancer cells. […]
(§13) 6; Detection; Luminescence, Viewlux PerkinElmer. […]
(§14) 6. The luminescence signal was measured using a ViewLux (PerkinElmer) multiplate reader with a 2 second exposure time per plate. […]

[5] = Quantitative highthroughput screen to assess conditional lethalithy of NOMO1 cells grown in RPMI1640 with dialyzed fetal bovine serum (RPMI+ds) (AID 1963877); conditions: NOMO1 in RPMI+dialyzed FBS viability, ATP luminescence, 48 h; further: nearly all actives have a fitted effect of over 30% in size
Description: as §9, §10, §11, §12, §13, §14

[6] = Quantitative highthroughput screen to assess conditional lethalithy of NOMO1 cells grown in Human Plasma-Like Medium with dialyzed fetal bovine serum (HPLM+ds) (AID 1963878); conditions: NOMO1 AML cells in HPLM+ds, CellTiter-Glo viability, 48 h; further: nearly all actives have a fitted effect of over 35% in size
Description: as §9, §10, §11, §12, §13, §14

[7] = Quantitative highthroughput screen to assess conditional lethalithy of SEM cells grown in Human Plasma-Like Medium with dialyzed fetal bovine serum (HPLM+ds) (AID 1963882); conditions: SEM B-ALL cells in HPLM+ds, CellTiter-Glo viability, 48 h; further: nearly all actives have a fitted effect of over 35% in size
Description: as §9, §10, §11, §12, §13, §14

[8] = tested on: Hepatitis C virus NS3/4A protease; test: Selectivity profile for inhibitors of NSP2Pro chikungunya virus (CHIKV): NS34A-HCV Counterscreen (AID 1964106; calls by dose curve; further: nearly all actives have a fitted effect of over 55% in size); conditions: HCV NS3/4A protease biochemical counterscreen
Potency means the concentration at half of the fitted maximal effect.

In the case of CCC(=O)N(c1ccccc1)C1CCNCC1, the Potency [1] is reported as inconclusive: 11 µM and the Potency [2] is reported as inconclusive: 3.35 µM.
For CC(=O)N1CCc2ccc(N(C(=O)/C=C/c3cccc(C#N)c3)C3CCN(CCC4CCCC4)CC3)cc21, the Potency [3] was inconclusive: 8.2 µM.
In the case of CCOC(=O)C(=O)CBr, the Potency [4] is reported as inconclusive: 26.4 µM, the Potency [5] is reported as inconclusive: 29.6 µM and the Potency [6] is reported as inconclusive: 37.2 µM. For the same compound, the Potency [7] was inconclusive: 13.2 µM.
For CN(C)C1(CNC(=O)c2ccc(C(C)(C)C)cc2)CCCCC1, the Potency [8] was inconclusive: 23.1 µM.
